Among the data in PubChem BioAssay AID1508600 (Functional Genomics Laboratory (NCATS/FGL), 2020) are z-score values, retold here.

The whole screen tested about 53,000 sequences, of which about 3,700 (7%) were called active.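 How the source made its calls: active means gene knockdowns whose robust z-score for IL-1 alpha signal is at least 2 or at most -2, so actives lie on both sides; inactive means the rest.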 This is one part of the list.

A short description of the assay: Components of the Cytosolic LPS Sensing Pathway: Gene Identification via Genome-wide siRNA Screen.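 Further: robust z of the log signal after scaling to non-targeting control siRNA wells of the plate.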 The note with it: RAW264.7 macrophages, IL-1a HTRF, actives lie on both sides, screened at 100 nM (by protocol), cells primed 5 h with Pam3CSK4 first. The method in brief:
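Using IL-1a HTRF as read-out, the screen measured release from RAW264.7 cells after 48h siRNA knockdown (100 nM), 5 h Pam3CSK4 priming and 24 h cytosolic LipidA. Values were expressed relative to negative-control wells as robust z-scores.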
Background: In TR-FRET formats the signal depends on donor and acceptor labels being close together.
With GGCCUAUGUCAGCACUUUATT against Eif3f, the z-score was inactive: -0.113.

Consider CCUUAUAGUGCUGAGGAAATT against Orm1, for which the z-score was inactive: 1.65. As to CCUGCUUACCAAAGAAUCCTT against Klf11, the z-score was inactive: -0.884. Then GGAAAAUGCUGUCCAGUGGTT against Rdh11, with inactive: -0.858; and GGUAUUGGUUUCAUCCACCTT against Impdh2, with inactive: 1.93.

For the sequence UCUGUUUCUAACAAGUGCATT against Taar7e, the z-score was inactive: 0.22. Then CCAAGUCUUGGAAAAUAACTT against Wfdc15a, with inactive: -1.09; and CGAAAUGGACUUCAACUUCTT against Foxo6, with inactive: 0.73; and CCAAGGUACUACUGGGAGATT against Sval3, with inactive: 0.268. Consider GGAUGAUUACAGAUAUGAUTT against Ccdc82, for which the z-score is inactive: 1.21. Then GGUCUCCUGUACAGAAAAUTT against Retreg3, with inactive: -0.652; and CCUUUAUUGGUGUUGGCCGTT against Apbb3, with inactive: 0.501; and GCUAUGGACCUCAGCAUAGTT against Inpp5e, with inactive: 1.8. Then CCAGUCCAUUGAAUAGUUCTT against Papola, with inactive: 0.329; and CGCAGGAUACAGCUAUAUUTT against Elovl4, with inactive: 1.37; and GGAAUCAGUGGUACCAAAUTT against Sorcs1, with inactive: -0.623. On to GGCUAUGAAGACUGGGUUUTT against Septin12, for which the z-score was inactive: -0.204. Then GGUGUGUUCAGGAGUUGAUTT against Col12a1, with inactive: 0.505. Consider GGAGCUUGAUUCGAAGCCUTT against Bik, for which the z-score was inactive: -0.364.

Take GGUCUCUGGUAAGAAGAGCTT against Zfp276: the z-score is active: 2.95.

As for GGGCAAGUAUGGGCAGUUCTT against Ppp1ca, the z-score is inactive: 0.0965. For the sequence CUCGCUGCCCGGCGGCCUCTT against Sox3, the z-score was inactive: 0.092. Then GGAUUUCAAAGUGCUUUGCTT against Kifap3, with active: 3.44. Then GGCUAAUAUUUCCAUUGUATT against Fibin, with inactive: -0.365. Consider GGACGGUCUUGAAAAUGGATT against Creld1, for which the z-score is inactive: -0.948.

For GGAAGAACAAAGAAAGAAGTT against Ccdc66, the z-score is inactive: -1.13. Regarding CGUAUUCCACUGCACUUUGTT against Ugt2a3, the z-score was inactive: 1.16. For the sequence GGUCAUCCUCAAGAUGAAGTT against Zfp819, the z-score is active: -2.82. With CCCACGGACUGGCCAGUAATT against Hyi, the z-score was inactive: 1.96. Then GGAAGAGGCAGCUUUUGGATT against Impg2, with inactive: 0.163; and “GGUCUGGAAAACCAGCUUATT against D630039A03Rik”, with inactive: 1.04. Then GGCCACUUCGUGUUCUUUUTT against Hoxa10, with active: 2.08; and GGAUGUACACAGAAGGCCATT against Sucnr1, with active: 3.47; and GCUGAAGGGACUCUAACCATT against Ihh, with inactive: 0.715.

On to CGGCUCGUACACAUGUGAATT against Creld2, for which the z-score is inactive: 0.199. Then GGCCCUCAAAAAUAAGUUUTT against Hsd3b3, with inactive: 0.554.

As to CGGUUACAAUUCAGUGAUATT against Mapk10, the z-score was inactive: -0.505.

Regarding GGCUGCUUUACUGAAGUAATT against C2cd6, the z-score was inactive: 1.29.

Turning to GGAAUUUGAAACUUACGGCTT against Oc90, the z-score is inactive: 0.379.

With GGUACUUCUCAUGGAUAAATT against Vps45, the z-score was inactive: -0.234. Then GCUUGGUACUACAAUGCCUTT against Sele, with inactive: 0.93; and CCUCUUCUGCGCGGAUUUGTT against Ffar4, with inactive: 0.708. As to GGUGUAUGCCAUUGAGACCTT against Metap2, the z-score is inactive: -0.54. Then GGACAACAUUAAUGUCAAGTT against Rab3a, with inactive: 1.62; and GGUUCCAAGUCAAAGAGUUTT against Foxl1, with inactive: -0.47. Take GGGCUUUUCAGACUGUUUGTT against Nrn1: the z-score is inactive: -0.232. For GGAAAGUUGUAUUUGAUGUTT against Nudt7, the z-score was inactive: -0.887. For CCUAGUCCUGAUUUAUCAGTT against Ddx39b, the z-score was active: -2.02. Then GGAGUGCUUGAAGUUAUUATT against Zw10, with inactive: -0.312; and GGAACCUCUUGGACAAAGATT against Cpne5, with active: 2.17; and GGUGGCAUACACAUUUGAUTT against Mvd, with inactive: -0.55. Take CCCAGCUUUUCAACUUGCUTT against Tmc4: the z-score was inactive: -1.19.

Take GGUGAAGAGCUUCUUGAUCTT against Zfyve27: the z-score was inactive: -0.362. As to CCUUCACCUGGCUAUUAGATT against Kif12, the z-score is inactive: -0.14.

On to CCAAAAGCAGCACAUUUCATT against Ticrr, for which the z-score was inactive: 1.18.

For GCAAUUAGUGGUUACAAGUTT against Corin, the z-score is inactive: 0.339.

Consider GCUCUACAGUAGAACAAACTT against Efcab5, for which the z-score was inactive: 1.18.

Turning to GGAAGAAAACAUGGAAGAATT against Usp47, the z-score was inactive: 0.392. Turning to GGAAGUCUUGGAUUACAGUTT against Srpr, the z-score is inactive: 0.401.

As to GGGAAAUUGUUCGUGACAUTT against Actg1, the z-score is inactive: -1.2. Take GCCGGGAUUUCGUUUUCUUTT against Gatad2a: the z-score was inactive: 1.57. Turning to CGCAAGAGGGAUGAAGGUATT against Pax5, the z-score is inactive: -0.0351.

Turning to CGAGGAAGAGAAUUUCUAUTT against Myc, the z-score is inactive: -0.209. Regarding GGGUCUGGAAGAUUUCAAATT against H1f7, the z-score is inactive: -1.42. On to UUAGCCACUCAUUGUUCCATT against Olfr1303, for which the z-score is inactive: -0.133. Consider GGAGACGUGUCUGAAAGACTT against Glp2r, for which the z-score is inactive: -0.557. As to GCUUGUAACCUAGCAGCUGTT against Tmem125, the z-score is inactive: -0.562. Consider GGUUUUUUGUAGCAAACAGTT against Phc2, for which the z-score is active: -2.7. Then GGACUGUGUGUGCAAAGGUTT against Mt3, with inactive: -0.176.
